PubChem BioAssay AID1224830, NIAID – 2016
Shown is an unselected part of about 18,000 reagents tested. Over the whole deposit, about 2,900 (16%) were called active. 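Calls are made per well; low scores hint the gene aids the LPS response, high scores that it dampens it.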 Entries without a mark were called inactive. The numbers tell different reagents against one gene apart. Repeated entries: four replicate wells of each siRNA pool. No sequences are given here.

Screen: 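Host factors that control LPS-induced TNF expression in human macrophages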 (primary screen)
Cells: human THP-1 monocytic leukaemia cells, TNF dual-luciferase reporter clone, PMA-differentiated to macrophage-like cells
Knock-down reagent: siRNA pool against human genes, 50 nM
Timing: LPS for 4 h, given about 3 days after siRNA transfection
Treatment: bacterial LPS (TLR4 ligand), 10 ng/ml
Read-out: 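Ratio of firefly to renilla light, scaled to the plate median and expressed as a robust z-score per replicate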
Reading the numbers: TNF reporter robust z-score: higher = stronger TNF reporter response to LPS
Active means: 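a well is active when its z-score exceeds 2.8 or falls below -1.5; control wells carry no call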

SMCR8 (SMCR8-C9orf72 complex subunit) scored TNF reporter robust z-score -0.97.
Against SMCR8 (SMCR8-C9orf72 complex subunit) the deposit lists TNF reporter robust z-score -0.12.
Knock-down of SMCR8 (SMCR8-C9orf72 complex subunit) gave: TNF reporter robust z-score -1.21.
After knock-down of SMCR8 (SMCR8-C9orf72 complex subunit) the results were TNF reporter robust z-score -0.44.
TCF7 (transcription factor 7) showed TNF reporter robust z-score 0.02.
TCF7 (transcription factor 7) showed TNF reporter robust z-score 0.06.
With knock-down of TCF7 (transcription factor 7), the record shows TNF reporter robust z-score -0.25.
TCF7 (transcription factor 7) gave TNF reporter robust z-score 0.18.
With knock-down of FSIP2 (fibrous sheath interacting protein 2) #1, the screen gave TNF reporter robust z-score 0.23.
After knock-down of FSIP2 (fibrous sheath interacting protein 2) #1, the record shows TNF reporter robust z-score 2.43.
For FSIP2 (fibrous sheath interacting protein 2) #1, the values are TNF reporter robust z-score 2.71.
Silencing of FSIP2 (fibrous sheath interacting protein 2) #1 came out at: TNF reporter robust z-score 2.66.
After knock-down of FSIP2 (fibrous sheath interacting protein 2) #2, the record shows TNF reporter robust z-score -2.05 (active).
Silencing of FSIP2 (fibrous sheath interacting protein 2) #2 resulted in: TNF reporter robust z-score -1.88 (active).
Silencing of FSIP2 (fibrous sheath interacting protein 2) #2 came out at: TNF reporter robust z-score -1.93 (active).
For FSIP2 (fibrous sheath interacting protein 2) #2, the entry reads TNF reporter robust z-score -1.19.
Against LRAT (lecithin retinol acyltransferase), the entry reads TNF reporter robust z-score -0.56.
LRAT (lecithin retinol acyltransferase) scored TNF reporter robust z-score 0.4.
Silencing of LRAT (lecithin retinol acyltransferase) gave: TNF reporter robust z-score -0.32.
Depletion of LRAT (lecithin retinol acyltransferase) came out at: TNF reporter robust z-score 0.09.
ZBTB46 (zinc finger and BTB domain containing 46) scored TNF reporter robust z-score 2.3.
Silencing of ZBTB46 (zinc finger and BTB domain containing 46) resulted in: TNF reporter robust z-score 2.89 (active).
Against ZBTB46 (zinc finger and BTB domain containing 46) the deposit lists TNF reporter robust z-score 4.36 (active).
With knock-down of ZBTB46 (zinc finger and BTB domain containing 46) the results were TNF reporter robust z-score 4.9 (active).
Against CFAP20DC (CFAP20 domain containing), the values are TNF reporter robust z-score -0.33.
Knock-down of CFAP20DC (CFAP20 domain containing) resulted in: TNF reporter robust z-score 0.73.
CFAP20DC (CFAP20 domain containing) scored TNF reporter robust z-score 0.65.
After knock-down of CFAP20DC (CFAP20 domain containing), the record shows TNF reporter robust z-score -1.16.
With knock-down of GALK1 (galactokinase 1), the record shows TNF reporter robust z-score -1.38.
After knock-down of GALK1 (galactokinase 1) the results were TNF reporter robust z-score -0.92.
GALK1 (galactokinase 1) gave TNF reporter robust z-score -1.17.
GALK1 (galactokinase 1) scored TNF reporter robust z-score -1.53 (active).

4 entries from above, arranged by “TNF reporter robust z-score”, highest first:
ZBTB46 (zinc finger and BTB domain containing 46): TNF reporter robust z-score = 4.9 (active)
ZBTB46 (zinc finger and BTB domain containing 46): TNF reporter robust z-score = 4.36 (active)
ZBTB46 (zinc finger and BTB domain containing 46): TNF reporter robust z-score = 2.89 (active)
ZBTB46 (zinc finger and BTB domain containing 46): TNF reporter robust z-score = 2.3

The listing continues:
After knock-down of H1-8 (H1.8 linker histone), the screen gave TNF reporter robust z-score -1.77 (active).
For H1-8 (H1.8 linker histone), the entry reads TNF reporter robust z-score -1.53 (active).
With knock-down of H1-8 (H1.8 linker histone), the record shows TNF reporter robust z-score -1.54 (active).
Knock-down of H1-8 (H1.8 linker histone) came out at: TNF reporter robust z-score -1.63 (active).
MTNAP1 (mitochondrial nucleoid associated protein 1) gave TNF reporter robust z-score 0.63.
Against MTNAP1 (mitochondrial nucleoid associated protein 1) the deposit lists TNF reporter robust z-score 0.17.
Silencing of MTNAP1 (mitochondrial nucleoid associated protein 1) came out at: TNF reporter robust z-score 0.8.
MTNAP1 (mitochondrial nucleoid associated protein 1) showed TNF reporter robust z-score -0.05.
For ATG2B (autophagy related 2B), the entry reads TNF reporter robust z-score -0.24.
After knock-down of ATG2B (autophagy related 2B), the screen gave TNF reporter robust z-score -0.01.
After knock-down of ATG2B (autophagy related 2B) the results were TNF reporter robust z-score -1.35.
Silencing of ATG2B (autophagy related 2B) gave: TNF reporter robust z-score 1.01.
With knock-down of PROKR2 (prokineticin receptor 2), the screen gave TNF reporter robust z-score -0.54.
PROKR2 (prokineticin receptor 2) showed TNF reporter robust z-score 0.07.
PROKR2 (prokineticin receptor 2) showed TNF reporter robust z-score 1.39.
Against PROKR2 (prokineticin receptor 2), the values are TNF reporter robust z-score 0.45.
